Laboratory results as given in the supplement of paper PMC8426693.
This is one part of the list.

Experiments:
Assay in all cases: NMR binding call after quantification (hit when 2 of 3 NMR criteria are met) (binary (1 = binding, 0 = not binding)); higher = binding
Details in all cases: RNA concentration 10 µM; fragment concentration 200 µM; 293 K
SARS-CoV-2 5_SL7 RNA = tested on: SARS-CoV-2 5_SL7 RNA
SARS-CoV-2 5_SL8 RNA = tested on: SARS-CoV-2 5_SL8 RNA
[1] = tested on: SARS-CoV-2 attenuator hairpin (att HP) RNA
[2] = tested on: SARS-CoV-2 frameshift pseudoknot (PK) RNA

NC(=O)c1ccc(NC(=O)c2ccccc2)cc1
NMR binding call (SARS-CoV-2 5_SL7 RNA): 0
NMR binding call (SARS-CoV-2 5_SL8 RNA): 0
NMR binding call [1]: 0
NMR binding call [2]: 0

CC(=O)N1CCCC2(CCCCCC2)C1
NMR binding call (SARS-CoV-2 5_SL7 RNA): 0
NMR binding call (SARS-CoV-2 5_SL8 RNA): 0
NMR binding call [1]: 0
NMR binding call [2]: 0

O=C(Nc1ccc(F)cc1)Nc1ccc(F)cc1
NMR binding call (SARS-CoV-2 5_SL7 RNA): 0
NMR binding call (SARS-CoV-2 5_SL8 RNA): 0
NMR binding call [1]: 0
NMR binding call [2]: 0

O=C(NCc1ccc(F)cc1)Nc1ccccc1
NMR binding call (SARS-CoV-2 5_SL7 RNA): 0
NMR binding call (SARS-CoV-2 5_SL8 RNA): 0
NMR binding call [1]: 0
NMR binding call [2]: 0

CC1CCN(C(=O)CC(F)(F)F)CC1
NMR binding call (SARS-CoV-2 5_SL7 RNA): 0
NMR binding call (SARS-CoV-2 5_SL8 RNA): 0
NMR binding call [1]: 0
NMR binding call [2]: 0

CN(C)C(=O)C1(C(=O)O)CC1
NMR binding call (SARS-CoV-2 5_SL7 RNA): 0
NMR binding call (SARS-CoV-2 5_SL8 RNA): 0
NMR binding call [1]: 0
NMR binding call [2]: 0

CCCC(=O)NCc1nc2ccccc2[nH]1
NMR binding call (SARS-CoV-2 5_SL7 RNA): 0
NMR binding call (SARS-CoV-2 5_SL8 RNA): 0
NMR binding call [1]: 0
NMR binding call [2]: 0

C1CCC(NCC2CCCO2)C1 (stereo not given)
NMR binding call (SARS-CoV-2 5_SL7 RNA): 0
NMR binding call (SARS-CoV-2 5_SL8 RNA): 0
NMR binding call [1]: 0
NMR binding call [2]: 0

CC1CCC(NC2CCC(O)CC2)CC1 (stereo not given)
NMR binding call (SARS-CoV-2 5_SL7 RNA): 0
NMR binding call (SARS-CoV-2 5_SL8 RNA): 0
NMR binding call [1]: 0
NMR binding call [2]: 0

CC(=O)Nc1cnccc1C
NMR binding call (SARS-CoV-2 5_SL7 RNA): 0
NMR binding call (SARS-CoV-2 5_SL8 RNA): 0
NMR binding call [1]: 0
NMR binding call [2]: 0

CC1CCCN(C(=O)CO)C1 (stereo not given)
NMR binding call (SARS-CoV-2 5_SL7 RNA): 0
NMR binding call (SARS-CoV-2 5_SL8 RNA): 0
NMR binding call [1]: 0
NMR binding call [2]: 0

CC(C)Oc1ccc(-c2csc(N)n2)cc1
NMR binding call (SARS-CoV-2 5_SL7 RNA): 0
NMR binding call (SARS-CoV-2 5_SL8 RNA): 0
NMR binding call [1]: 0
NMR binding call [2]: 0

C(#Cc1ccccc1)CN1CCCCC1
NMR binding call (SARS-CoV-2 5_SL7 RNA): 0
NMR binding call (SARS-CoV-2 5_SL8 RNA): 0
NMR binding call [1]: 0
NMR binding call [2]: 0

Cc1nc(-c2ccccc2)no1
NMR binding call (SARS-CoV-2 5_SL7 RNA): 0
NMR binding call (SARS-CoV-2 5_SL8 RNA): 0
NMR binding call [1]: 0
NMR binding call [2]: 0

CC(O)CNC(=O)Nc1ccccc1 (stereo not given)
NMR binding call (SARS-CoV-2 5_SL7 RNA): 0
NMR binding call (SARS-CoV-2 5_SL8 RNA): 0
NMR binding call [1]: 0
NMR binding call [2]: 0

CC(=O)Nc1ccc(NC(=O)C2CC2(C)C)cc1 (stereo not given)
NMR binding call (SARS-CoV-2 5_SL7 RNA): 0
NMR binding call (SARS-CoV-2 5_SL8 RNA): 0
NMR binding call [1]: 0
NMR binding call [2]: 0

O=C(Nc1cccc(F)c1)c1cnccn1
NMR binding call (SARS-CoV-2 5_SL7 RNA): 0
NMR binding call (SARS-CoV-2 5_SL8 RNA): 0
NMR binding call [1]: 0
NMR binding call [2]: 0

COCc1cc(C(N)=O)no1
NMR binding call (SARS-CoV-2 5_SL7 RNA): 0
NMR binding call (SARS-CoV-2 5_SL8 RNA): 0
NMR binding call [1]: 0
NMR binding call [2]: 0

CCC1CCC(NCC2CCCO2)CC1 (stereo not given)
NMR binding call (SARS-CoV-2 5_SL7 RNA): 0
NMR binding call (SARS-CoV-2 5_SL8 RNA): 0
NMR binding call [1]: 0
NMR binding call [2]: 0

CC(=O)Nc1ccc(NC(=O)CC(C)C)cc1
NMR binding call (SARS-CoV-2 5_SL7 RNA): 0
NMR binding call (SARS-CoV-2 5_SL8 RNA): 0
NMR binding call [1]: 0
NMR binding call [2]: 0

CCc1noc(C)c1C(=O)Nc1cc(C)on1
NMR binding call (SARS-CoV-2 5_SL7 RNA): 0
NMR binding call (SARS-CoV-2 5_SL8 RNA): 0
NMR binding call [1]: 0
NMR binding call [2]: 0

CCC(C)NC(=O)c1ccccc1N (stereo not given)
NMR binding call (SARS-CoV-2 5_SL7 RNA): 0
NMR binding call (SARS-CoV-2 5_SL8 RNA): 0
NMR binding call [1]: 0
NMR binding call [2]: 0

COC(=O)C1CC(O)CN1C(=O)c1ccco1 (stereo not given)
NMR binding call (SARS-CoV-2 5_SL7 RNA): 0
NMR binding call (SARS-CoV-2 5_SL8 RNA): 0
NMR binding call [1]: 0
NMR binding call [2]: 0

CC(=O)c1ccc(OC(F)F)cc1
NMR binding call (SARS-CoV-2 5_SL7 RNA): 0
NMR binding call (SARS-CoV-2 5_SL8 RNA): 0
NMR binding call [1]: 0
NMR binding call [2]: 0

O=C(CCCc1ccccc1)N1CCOCC1
NMR binding call (SARS-CoV-2 5_SL7 RNA): 0
NMR binding call (SARS-CoV-2 5_SL8 RNA): 0
NMR binding call [1]: 0
NMR binding call [2]: 0

CCOC(=O)CN1CCCCC1
NMR binding call (SARS-CoV-2 5_SL7 RNA): 0
NMR binding call (SARS-CoV-2 5_SL8 RNA): 0
NMR binding call [1]: 0
NMR binding call [2]: 0

Cn1cc(Oc2ncncc2Cl)cn1
NMR binding call (SARS-CoV-2 5_SL7 RNA): 0
NMR binding call (SARS-CoV-2 5_SL8 RNA): 0
NMR binding call [1]: 0
NMR binding call [2]: 0

O=C(Nc1nnc[nH]1)c1cccnc1Cl
NMR binding call (SARS-CoV-2 5_SL7 RNA): 0
NMR binding call (SARS-CoV-2 5_SL8 RNA): 0
NMR binding call [1]: 0
NMR binding call [2]: 0

NC(=O)c1cc(N2CCCC2)ccn1
NMR binding call (SARS-CoV-2 5_SL7 RNA): 1
NMR binding call (SARS-CoV-2 5_SL8 RNA): 0
NMR binding call [1]: 0
NMR binding call [2]: 0

COc1ccc(C)cc1NC(=O)Nn1cnnc1
NMR binding call (SARS-CoV-2 5_SL7 RNA): 0
NMR binding call (SARS-CoV-2 5_SL8 RNA): 0
NMR binding call [1]: 0
NMR binding call [2]: 0

CCOC(=O)c1ccoc1
NMR binding call (SARS-CoV-2 5_SL7 RNA): 0
NMR binding call (SARS-CoV-2 5_SL8 RNA): 0
NMR binding call [1]: 0
NMR binding call [2]: 0

CCOc1ccc(C(C)N)cc1.Cl (stereo not given)
NMR binding call (SARS-CoV-2 5_SL7 RNA): 0
NMR binding call (SARS-CoV-2 5_SL8 RNA): 0
NMR binding call [1]: 0
NMR binding call [2]: 0

CC(C)N(C)c1ncnc2c1cnn2C
NMR binding call (SARS-CoV-2 5_SL7 RNA): 0
NMR binding call (SARS-CoV-2 5_SL8 RNA): 0
NMR binding call [1]: 0
NMR binding call [2]: 0

COC(=O)c1ccccc1NC(=O)N1CCCC1
NMR binding call (SARS-CoV-2 5_SL7 RNA): 0
NMR binding call (SARS-CoV-2 5_SL8 RNA): 0
NMR binding call [2]: 0
